Laboratory results from the supplement of paper PMC5836539.
± gives the standard deviation of the averaged measurements. Most values lie within the scatter of the assay; repeated measurements hardly agree.

The chains behind the UniProt entries cited, without tags or fusion partners. Where a name states a change or a piece, a line headed by the entry shows the natural chain unless it says otherwise.
UniProt Q01105, whole entry: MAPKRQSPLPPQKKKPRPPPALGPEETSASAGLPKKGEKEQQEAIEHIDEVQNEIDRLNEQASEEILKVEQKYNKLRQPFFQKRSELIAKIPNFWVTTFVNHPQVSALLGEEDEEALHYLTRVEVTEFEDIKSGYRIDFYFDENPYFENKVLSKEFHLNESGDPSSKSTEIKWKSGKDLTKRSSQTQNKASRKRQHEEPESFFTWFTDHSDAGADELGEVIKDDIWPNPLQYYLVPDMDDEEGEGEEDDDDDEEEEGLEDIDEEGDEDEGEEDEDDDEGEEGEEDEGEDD
UniProt Q9NRH2: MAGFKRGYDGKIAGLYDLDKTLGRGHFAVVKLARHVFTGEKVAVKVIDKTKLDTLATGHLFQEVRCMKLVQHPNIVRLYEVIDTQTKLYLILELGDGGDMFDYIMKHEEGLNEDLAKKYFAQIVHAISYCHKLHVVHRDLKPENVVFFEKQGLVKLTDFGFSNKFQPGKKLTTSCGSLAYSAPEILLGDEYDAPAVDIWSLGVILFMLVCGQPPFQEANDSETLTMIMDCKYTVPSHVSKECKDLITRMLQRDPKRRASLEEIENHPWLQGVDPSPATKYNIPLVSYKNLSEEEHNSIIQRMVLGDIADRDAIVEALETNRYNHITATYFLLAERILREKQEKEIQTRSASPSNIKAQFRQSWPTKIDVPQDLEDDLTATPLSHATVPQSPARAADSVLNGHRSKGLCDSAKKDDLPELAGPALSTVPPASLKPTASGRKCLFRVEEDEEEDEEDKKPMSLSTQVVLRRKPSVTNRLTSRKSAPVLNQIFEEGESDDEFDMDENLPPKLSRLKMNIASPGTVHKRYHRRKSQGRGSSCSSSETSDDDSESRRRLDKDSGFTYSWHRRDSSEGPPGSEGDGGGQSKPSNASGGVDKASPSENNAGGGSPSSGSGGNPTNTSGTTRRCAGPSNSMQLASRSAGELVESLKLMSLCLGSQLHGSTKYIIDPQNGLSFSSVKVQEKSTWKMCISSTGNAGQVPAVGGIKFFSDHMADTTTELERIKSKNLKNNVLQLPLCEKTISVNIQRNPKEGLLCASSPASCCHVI
UniProt Q8IYB3: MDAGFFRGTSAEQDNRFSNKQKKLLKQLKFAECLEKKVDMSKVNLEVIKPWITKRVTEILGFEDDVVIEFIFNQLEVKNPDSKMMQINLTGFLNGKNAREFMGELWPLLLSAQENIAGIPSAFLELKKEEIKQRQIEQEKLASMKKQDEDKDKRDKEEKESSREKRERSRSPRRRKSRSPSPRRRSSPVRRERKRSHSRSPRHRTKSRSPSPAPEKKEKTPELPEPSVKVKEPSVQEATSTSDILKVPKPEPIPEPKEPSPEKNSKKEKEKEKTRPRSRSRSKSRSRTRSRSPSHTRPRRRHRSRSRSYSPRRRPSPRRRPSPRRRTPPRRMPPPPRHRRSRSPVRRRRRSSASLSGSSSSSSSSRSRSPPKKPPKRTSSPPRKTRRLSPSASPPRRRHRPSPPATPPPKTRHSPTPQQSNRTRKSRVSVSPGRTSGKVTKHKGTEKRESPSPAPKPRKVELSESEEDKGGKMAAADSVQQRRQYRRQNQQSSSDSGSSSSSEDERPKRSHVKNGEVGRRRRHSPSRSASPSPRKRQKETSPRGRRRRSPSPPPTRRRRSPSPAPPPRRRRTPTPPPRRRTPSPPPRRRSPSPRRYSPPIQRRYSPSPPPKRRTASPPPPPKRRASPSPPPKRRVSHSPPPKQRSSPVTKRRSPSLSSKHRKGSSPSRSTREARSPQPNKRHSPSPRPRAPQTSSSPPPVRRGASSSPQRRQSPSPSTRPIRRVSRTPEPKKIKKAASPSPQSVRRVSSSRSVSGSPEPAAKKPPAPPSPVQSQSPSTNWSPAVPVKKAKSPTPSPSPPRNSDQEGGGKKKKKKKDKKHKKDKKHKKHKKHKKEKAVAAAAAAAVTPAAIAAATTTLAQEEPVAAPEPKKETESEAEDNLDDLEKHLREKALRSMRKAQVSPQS
UniProt Q9UQ35: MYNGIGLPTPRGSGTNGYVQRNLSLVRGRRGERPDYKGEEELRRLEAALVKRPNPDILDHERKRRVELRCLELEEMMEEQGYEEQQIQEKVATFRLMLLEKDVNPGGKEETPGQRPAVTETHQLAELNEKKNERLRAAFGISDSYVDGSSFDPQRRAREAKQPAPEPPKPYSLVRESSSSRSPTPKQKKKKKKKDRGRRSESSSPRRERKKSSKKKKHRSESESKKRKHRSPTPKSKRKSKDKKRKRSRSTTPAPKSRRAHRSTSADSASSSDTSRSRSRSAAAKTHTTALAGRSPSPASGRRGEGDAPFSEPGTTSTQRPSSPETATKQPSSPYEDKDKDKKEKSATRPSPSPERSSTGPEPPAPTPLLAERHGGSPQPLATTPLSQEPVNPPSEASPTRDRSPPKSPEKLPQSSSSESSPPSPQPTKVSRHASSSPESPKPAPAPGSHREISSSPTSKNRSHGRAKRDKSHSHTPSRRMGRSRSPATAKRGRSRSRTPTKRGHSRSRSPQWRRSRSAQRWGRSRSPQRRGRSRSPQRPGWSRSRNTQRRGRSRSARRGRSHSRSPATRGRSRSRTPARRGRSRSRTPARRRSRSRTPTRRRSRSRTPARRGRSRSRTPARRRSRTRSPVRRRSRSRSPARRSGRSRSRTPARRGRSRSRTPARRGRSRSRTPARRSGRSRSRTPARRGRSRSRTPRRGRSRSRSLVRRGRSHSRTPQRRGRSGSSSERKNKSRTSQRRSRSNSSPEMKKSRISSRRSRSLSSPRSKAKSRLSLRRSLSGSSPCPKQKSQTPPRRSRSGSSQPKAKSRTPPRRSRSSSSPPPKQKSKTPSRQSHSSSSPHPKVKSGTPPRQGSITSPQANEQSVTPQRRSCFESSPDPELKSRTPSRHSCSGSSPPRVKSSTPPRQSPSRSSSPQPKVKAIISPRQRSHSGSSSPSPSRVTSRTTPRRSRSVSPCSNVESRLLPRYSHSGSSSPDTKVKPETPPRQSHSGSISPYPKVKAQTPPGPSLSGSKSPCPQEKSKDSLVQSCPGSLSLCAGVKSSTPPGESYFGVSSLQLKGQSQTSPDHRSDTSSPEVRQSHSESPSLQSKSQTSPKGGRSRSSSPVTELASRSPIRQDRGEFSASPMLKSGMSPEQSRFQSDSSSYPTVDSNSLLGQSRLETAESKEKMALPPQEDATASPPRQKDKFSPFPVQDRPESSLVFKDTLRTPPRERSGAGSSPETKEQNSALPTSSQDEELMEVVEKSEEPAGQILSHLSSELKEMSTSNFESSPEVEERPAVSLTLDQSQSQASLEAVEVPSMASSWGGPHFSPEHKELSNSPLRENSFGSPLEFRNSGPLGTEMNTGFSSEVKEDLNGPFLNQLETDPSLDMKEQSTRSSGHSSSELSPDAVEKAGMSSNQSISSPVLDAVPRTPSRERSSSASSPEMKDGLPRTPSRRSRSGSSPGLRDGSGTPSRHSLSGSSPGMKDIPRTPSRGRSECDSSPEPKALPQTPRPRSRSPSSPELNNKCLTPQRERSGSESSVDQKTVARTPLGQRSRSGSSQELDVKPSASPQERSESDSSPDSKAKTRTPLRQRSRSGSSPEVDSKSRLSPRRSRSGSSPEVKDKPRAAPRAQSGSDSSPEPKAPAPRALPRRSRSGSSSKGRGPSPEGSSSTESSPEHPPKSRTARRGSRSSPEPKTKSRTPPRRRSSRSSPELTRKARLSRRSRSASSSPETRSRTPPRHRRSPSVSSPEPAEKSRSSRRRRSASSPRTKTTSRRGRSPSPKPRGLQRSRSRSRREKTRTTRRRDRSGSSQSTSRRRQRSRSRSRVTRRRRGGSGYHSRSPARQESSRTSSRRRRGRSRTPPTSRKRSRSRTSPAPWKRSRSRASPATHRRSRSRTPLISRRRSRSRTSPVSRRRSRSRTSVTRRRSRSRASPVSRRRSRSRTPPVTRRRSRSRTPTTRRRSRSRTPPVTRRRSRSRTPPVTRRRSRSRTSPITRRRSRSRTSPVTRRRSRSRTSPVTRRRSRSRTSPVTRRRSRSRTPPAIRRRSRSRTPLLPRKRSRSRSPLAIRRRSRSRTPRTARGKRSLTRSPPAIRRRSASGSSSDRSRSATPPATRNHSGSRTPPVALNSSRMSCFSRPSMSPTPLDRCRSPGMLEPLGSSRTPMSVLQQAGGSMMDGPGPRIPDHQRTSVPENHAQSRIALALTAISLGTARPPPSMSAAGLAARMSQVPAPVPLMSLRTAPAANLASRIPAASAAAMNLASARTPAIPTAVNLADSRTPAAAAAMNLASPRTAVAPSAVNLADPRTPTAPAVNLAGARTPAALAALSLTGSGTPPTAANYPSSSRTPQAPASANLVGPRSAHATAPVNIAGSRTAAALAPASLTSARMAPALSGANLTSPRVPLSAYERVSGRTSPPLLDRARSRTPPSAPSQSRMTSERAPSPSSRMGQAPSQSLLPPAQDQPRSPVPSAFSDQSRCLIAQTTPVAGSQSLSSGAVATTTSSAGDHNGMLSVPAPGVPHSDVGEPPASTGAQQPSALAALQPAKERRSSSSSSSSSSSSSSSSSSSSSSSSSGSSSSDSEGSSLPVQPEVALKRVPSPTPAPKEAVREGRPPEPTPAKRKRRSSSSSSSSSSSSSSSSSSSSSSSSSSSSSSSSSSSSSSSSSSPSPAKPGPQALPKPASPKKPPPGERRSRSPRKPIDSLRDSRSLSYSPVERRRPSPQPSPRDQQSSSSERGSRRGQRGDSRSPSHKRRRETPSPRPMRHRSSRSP
UniProt Q9Y2W1: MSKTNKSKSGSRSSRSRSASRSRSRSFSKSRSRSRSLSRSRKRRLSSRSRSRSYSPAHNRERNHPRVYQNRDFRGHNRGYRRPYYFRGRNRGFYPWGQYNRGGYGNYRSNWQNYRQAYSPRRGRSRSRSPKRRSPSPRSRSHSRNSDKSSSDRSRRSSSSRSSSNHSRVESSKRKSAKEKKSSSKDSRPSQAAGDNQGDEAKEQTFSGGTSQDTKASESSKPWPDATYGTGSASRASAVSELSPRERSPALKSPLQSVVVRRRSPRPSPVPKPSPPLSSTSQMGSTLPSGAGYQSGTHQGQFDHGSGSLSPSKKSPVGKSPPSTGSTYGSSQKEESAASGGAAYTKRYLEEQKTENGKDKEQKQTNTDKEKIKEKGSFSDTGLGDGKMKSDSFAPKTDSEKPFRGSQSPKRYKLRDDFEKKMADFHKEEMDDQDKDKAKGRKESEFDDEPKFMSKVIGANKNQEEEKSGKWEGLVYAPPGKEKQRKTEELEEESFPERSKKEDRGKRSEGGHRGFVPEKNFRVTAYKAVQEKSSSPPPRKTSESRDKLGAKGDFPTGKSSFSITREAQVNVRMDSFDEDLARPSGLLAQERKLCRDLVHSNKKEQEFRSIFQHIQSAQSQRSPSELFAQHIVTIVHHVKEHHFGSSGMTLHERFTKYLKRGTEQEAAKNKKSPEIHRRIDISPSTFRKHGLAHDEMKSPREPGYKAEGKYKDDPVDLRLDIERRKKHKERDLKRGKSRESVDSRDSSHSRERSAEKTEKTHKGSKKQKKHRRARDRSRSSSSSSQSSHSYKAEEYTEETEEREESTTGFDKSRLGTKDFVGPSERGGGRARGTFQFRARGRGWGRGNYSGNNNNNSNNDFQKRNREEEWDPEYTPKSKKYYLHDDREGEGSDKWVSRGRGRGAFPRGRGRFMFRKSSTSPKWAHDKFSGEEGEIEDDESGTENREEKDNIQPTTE
UniProt Q13263: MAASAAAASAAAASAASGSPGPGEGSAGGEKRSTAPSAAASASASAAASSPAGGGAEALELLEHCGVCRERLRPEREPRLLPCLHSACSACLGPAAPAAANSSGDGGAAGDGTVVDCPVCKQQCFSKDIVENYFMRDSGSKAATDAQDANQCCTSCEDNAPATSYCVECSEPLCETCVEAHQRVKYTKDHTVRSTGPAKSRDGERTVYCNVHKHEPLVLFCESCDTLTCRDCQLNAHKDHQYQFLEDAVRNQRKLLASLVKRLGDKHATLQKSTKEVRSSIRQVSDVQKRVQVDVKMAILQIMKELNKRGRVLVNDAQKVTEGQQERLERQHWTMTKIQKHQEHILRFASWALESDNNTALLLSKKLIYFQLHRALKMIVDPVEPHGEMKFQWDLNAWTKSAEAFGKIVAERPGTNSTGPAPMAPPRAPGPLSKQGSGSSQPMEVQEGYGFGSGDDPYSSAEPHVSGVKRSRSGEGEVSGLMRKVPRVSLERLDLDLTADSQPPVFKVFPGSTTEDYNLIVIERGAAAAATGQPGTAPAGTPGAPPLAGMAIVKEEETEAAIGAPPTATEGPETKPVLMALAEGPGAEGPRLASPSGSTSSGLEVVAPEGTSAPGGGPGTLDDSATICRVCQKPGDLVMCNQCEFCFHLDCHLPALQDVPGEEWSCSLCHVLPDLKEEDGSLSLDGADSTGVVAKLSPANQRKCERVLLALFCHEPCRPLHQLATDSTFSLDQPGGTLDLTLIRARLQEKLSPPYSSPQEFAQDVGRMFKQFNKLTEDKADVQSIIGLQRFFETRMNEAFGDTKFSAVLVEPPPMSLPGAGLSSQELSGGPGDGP

Tests used:
XL888 [1] = compound: T1, CC[C@@H](C)Nc1cc(C(=O)N[C@H]2C[C@H]3CC[C@@H](C2)N3c2ccc(C(=O)C3CC3)cn2)c(C)cc1C(N)=O [XL888]; assay: phosphopeptide melting temperature shift (XL888 minus DMSO); higher = stabilised by drug treatment; settings: 100 µM; treatment time 2 h; layout: intact cells; SK-Mel 28
Experimental: (§1)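 Phospho-TPP in intact SK-Mel 28 cells treated with 100 uM XL888 or DMSO for 2 h, heated at 10 temperatures (37-67 C) for 3 min, soluble fraction TMT10plex-labelled and TiO2 phospho-enriched. Melting curves were fitted per phosphopeptide; the value is the melting point difference (drug minus vehicle) in each of two biological replicates.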

XL888 [2] = compound: T1, XL888; assay: as above; settings: 100 µM; treatment time 2 h; layout: intact cells; SK-Mel 24
Experimental: as §1, with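 “24” for “28”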

| Target | phosphopeptide melting temperature shift (XL888 [1]) | phosphopeptide melting temperature shift (XL888 [2]) |
| --- | --- | --- |
| RSL1D1 phosphosite_361 (phosphosite position: 361) (UniProt O76021) | -0.211 ± 0.64 °C | -0.237 °C |
| RTF1 phosphosite_79 (phosphosite position: 79) (UniProt Q92541) | 0.544 ± 0.5 °C | 0.773 ± 0.39 °C |
| SAAL1 phosphosite_56 (phosphosite position: 56) (UniProt Q96ER3) | 2.32 °C | 3.57 °C |
| SASH1 phosphosite_486 (phosphosite position: 486) (UniProt O94885) | 1.69 ± 0.97 °C | 2.82 °C |
| SET phosphosite_7 (phosphosite position: 7) (UniProt Q01105) | 0.0632 ± 0.03 °C | 1.29 ± 0.51 °C |
| SF3A1 phosphosite_329 (phosphosite position: 329) (UniProt Q15459) | 1.52 ± 0.32 °C | 1.26 °C |
| SGTA phosphosite_77 (phosphosite position: 77) (UniProt O43765) | 2.3 ± 1.2 °C | -0.418 °C |
| SGTA phosphosite_81 (phosphosite position: 81) (UniProt O43765) | 2.69 ± 1 °C | 0.424 °C |
| SKIV2L phosphosite_256 (phosphosite position: 256) (UniProt Q15477) | 0.45 ± 0.15 °C | 0.151 ± 0.067 °C |
| SLC4A1AP phosphosite_466 (phosphosite position: 466) (UniProt Q9BWU0) | 1.62 °C | 1.33 °C |
| SLC7A6OS phosphosite_308 (phosphosite position: 308) (UniProt Q96CW6) | 0.62 ± 1.5 °C | 1.54 °C |
| SLU7 phosphosite_235 (phosphosite position: 235) (UniProt O95391) | 3.85 ± 0.34 °C | 3.65 °C |
| SNAPIN phosphosite_133 (phosphosite position: 133) (UniProt O95295) | -0.221 °C | 0.818 °C |
| SNRK phosphosite_569 (phosphosite position: 569) (UniProt Q9NRH2) | 0.525 ± 1.5 °C | 1.1 °C |
| SNRNP70 phosphosite_226 (phosphosite position: 226) (UniProt P08621) | -2.18 °C | -2.16 °C |
| SNTB1 phosphosite_219 (phosphosite position: 219) (UniProt Q13884) | 3.08 °C | 0.527 °C |
| SNW1 phosphosite_224 (phosphosite position: 224) (UniProt Q13573) | -0.293 ± 0.81 °C | 0.803 ± 1.8 °C |
| SOX13 phosphosite_335 (phosphosite position: 335) (UniProt Q9UN79) | 1.92 ± 1.8 °C | 1.71 °C |
| SPTBN1 phosphosite_2102 (phosphosite position: 2102) (UniProt Q01082) | 1.54 ± 0.53 °C | 0.754 ± 0.11 °C |
| SPTBN1 phosphosite_2165 (phosphosite position: 2165) (UniProt Q01082) | 1.26 ± 0.46 °C | 0.426 ± 0.71 °C |
| SPTBN1 phosphosite_2320 (phosphosite position: 2320) (UniProt Q01082) | 3.09 ± 1.6 °C | 1.02 °C |
| SQSTM1 phosphosite_269 (phosphosite position: 269) (UniProt Q13501) | 0.814 ± 1.3 °C | 0.253 ± 0.55 °C |
| SQSTM1 phosphosite_272 (phosphosite position: 272) (UniProt Q13501) | -0.705 ± 0.75 °C | -0.724 °C |
| SRC phosphosite_17 (phosphosite position: 17) (UniProt P12931) | -1.85 ± 0.7 °C | -1.02 °C |
| SRFBP1 phosphosite_264 (phosphosite position: 264) (UniProt Q8NEF9) | 2.11 °C | 1.02 °C |
| SRRM1 phosphosite_220 (phosphosite position: 220) (UniProt Q8IYB3) | 1.01 ± 0.6 °C | -0.346 ± 0.2 °C |

Part of the list above, tab-delimited.
Target	phosphopeptide melting temperature shift (XL888 [1])	phosphopeptide melting temperature shift (XL888 [2])
RSL1D1 phosphosite_361 (phosphosite position: 361) (UniProt O76021)	-0.211 ± 0.64 °C	-0.237 °C
SNRK phosphosite_569 (phosphosite position: 569) (UniProt Q9NRH2)	0.525 ± 1.5 °C	1.1 °C
SPTBN1 phosphosite_2165 (phosphosite position: 2165) (UniProt Q01082)	1.26 ± 0.46 °C	0.426 ± 0.71 °C

Carrying on:

| Target | phosphopeptide melting temperature shift (XL888 [1]) | phosphopeptide melting temperature shift (XL888 [2]) |
| --- | --- | --- |
| SRRM1 phosphosite_450 (phosphosite position: 450) (UniProt Q8IYB3) | 0.00242 ± 0.2 °C | -0.164 ± 0.43 °C |
| SRRM1 phosphosite_675 (phosphosite position: 675) (UniProt Q8IYB3) | 0.732 °C | 1.68 °C |
| SRRM1 phosphosite_874 (phosphosite position: 874) (UniProt Q8IYB3) | -0.285 ± 0.48 °C | -0.947 °C |
| SRRM2 phosphosite_994 (phosphosite position: 994) (UniProt Q9UQ35) | 3.56 ± 1.1 °C | 3.57 °C |
| SRRM2 phosphosite_1003 (phosphosite position: 1003) (UniProt Q9UQ35) | 12.7 °C | 3.46 °C |
| SRRM2 phosphosite_1083 (phosphosite position: 1083) (UniProt Q9UQ35) | 2.61 ± 1.3 °C | 2.45 °C |
| SRRM2 phosphosite_1320 (phosphosite position: 1320) (UniProt Q9UQ35) | 2.48 ± 0.72 °C | 0.231 ± 0.37 °C |
| SRRM2 phosphosite_1492 (phosphosite position: 1492) (UniProt Q9UQ35) | 0.284 °C | 2.11 ± 1.3 °C |
| SRRM2 phosphosite_2409 (phosphosite position: 2409) (UniProt Q9UQ35) | -1.44 °C | 1.33 ± 0.22 °C |
| SRRM2 phosphosite_2702 (phosphosite position: 2702) (UniProt Q9UQ35) | 2.46 °C | 3.49 °C |
| SSB phosphosite_366 (phosphosite position: 366) (UniProt P05455) | -0.78 ± 0.17 °C | -1.23 ± 0.14 °C |
| STAT1 phosphosite_727 (phosphosite position: 727) (UniProt P42224) | -1.17 ± 0.93 °C | -0.308 °C |
| STIP1 phosphosite_481 (phosphosite position: 481) (UniProt P31948) | 0.955 ± 0.23 °C | 2.44 °C |
| STMN1 phosphosite_16 (phosphosite position: 16) (UniProt P16949) | 1.02 °C | 0.869 °C |
| SUPT6H phosphosite_125 (phosphosite position: 125) (UniProt Q7KZ85) | 0.206 ± 0.059 °C | -0.842 °C |
| TCEA1 phosphosite_100 (phosphosite position: 100) (UniProt P23193) | 0.812 ± 0.34 °C | 0.841 °C |
| TFIP11 phosphosite_98 (phosphosite position: 98) (UniProt Q9UBB9) | 1.28 ± 0.38 °C | 0.657 °C |
| THRAP3 phosphosite_248 (phosphosite position: 248) (UniProt Q9Y2W1) | 4.76 °C | 1.08 °C |
| THRAP3 phosphosite_682 (phosphosite position: 682) (UniProt Q9Y2W1) | 0.272 ± 0.22 °C | 1.66 ± 1.5 °C |
| THRAP3 phosphosite_939 (phosphosite position: 939) (UniProt Q9Y2W1) | 0.797 °C | 1.66 °C |
| TMPO phosphosite_66 (phosphosite position: 66) (UniProt P42166) | 1.23 ± 2.7 °C | 2 °C |
| TNS1 phosphosite_1177 (phosphosite position: 1177) (UniProt Q9HBL0) | 3.73 °C | 0.779 °C |
| TP53BP1 phosphosite_380 (phosphosite position: 380) (UniProt Q12888) | 3.64 ± 2.6 °C | 1.35 °C |
| TPMT phosphosite_14 (phosphosite position: 14) (UniProt P51580) | 0.6 ± 0.33 °C | 0.114 °C |
| TRIM28 phosphosite_473 (phosphosite position: 473) (UniProt Q13263) | -1.54 ± 0.47 °C | -0.14 ± 0.018 °C |
| TRIP12 phosphosite_312 (phosphosite position: 312) (UniProt Q14669) | -3.01 °C | 1.28 °C |
